Measurements published in US20090156494A1, “COMPOSITIONS AND METHODS COMPRISING GASTRIN COMPOUNDS” (priority 2003, published 2009).
“Also recorded” adds a separate entry of the source. At least one structure is not confirmed: it was looked up by name or label, or the drawing left a doubt.

System: NOD mice with chronic insulin-dependent diabetes
Test: Dose-dependent effects of gastrin on fasting blood glucose and survival in NOD mice with chronic insulin-dependent diabetes
Format: in vivo
Settings: day 28, 14 days after cessation of insulin therapy; G1 1, 5, 10 μg/kg/day; all vehicle animals died from DKA

With `CSCC[C@@H](NC(=O)[C@@H](Cc1c[nH]c2ccccc12)NC(=O)CNC(=O)[C@@H](Cc1ccc(O)cc1)NC(=O)[C@@H](C)NC(=O)[C@@H](CCC(=O)O)NC(=O)[C@@H](CCC(=O)O)NC(=O)[C@@H](CCC(=O)O)NC(=O)[C@H](CCC(=O)O)NC(=O)[C@H](CCC(=O)O)NC(=O)[C@H](CC(C)C)NC(=O)[C@H](Cc1c[nH]c2ccccc12)NC(=O)[C@@H]1CCCN1C(=O)CNC(=O)[C@@H](N)CCC(=O)O)C(=O)N[C@H](CC(=O)O)C(=O)N[C@H](Cc1ccccc1)C(N)=O` [G1] the “Survival after cessation of insulin therapy” value was “survived without insulin treatment for 2 weeks; also recorded: prevents death”.
